From paper PMC4059961
Negatives hold for the conditions tested.

System: SUMO::TaWRKY53 (Triticum aestivum L. cv. Gamtoos-R)
Experiment: EMSA
Conditions: Probe EMSA: 10 mM Tris, 50 mM KCl, 1 mM DTT, pH 7.5, 20 min, room temperature; 1-kb EMSA: 10 mM Tris, 100 mM KCl, 1 mM EDTA, 0.1 mM DTT, 5% glycerol, 0.01 mg/mL BSA; recombinant protein; protein details: N-terminal 6xHis-SUMO; label: biotin

AGCCTCACGTTTCGTCCTGATTGCAAGTTGTTGACTTAAATTTGACTTGTCTCGGAACAAAACAATAACCTGCAGTCCGT (double strand) [chitinase-2 promoter probe]
binding result: no binding
